No constants are given. Whether binding was seen depends on the method and setting. For some assays here: Binding seen in cells or lysates may run through a third protein. Some binding calls cover weakened binding; strength is not graded here. Sequences can lack the tags named with a protein. Blank lines part the entries; values can stand above or below the binder they belong to.
Experiments:
[1] = molecular target: T1, FZD6-Rluc8 / FZD6-eYFP (BRET constructs) (human) (UniProt O60353); experiment: FRET or BRET; BRET of FZD-Rluc8 with FZD-eYFP (1:5) in living dFZD1-10-/- HEK293T cells, homo-oligomerisation; basal and ligand-induced ΔBRET with WNT3A/afamin 400 ng/ml (against afamin) or WNT5A 500 ng/ml
T1 sequence: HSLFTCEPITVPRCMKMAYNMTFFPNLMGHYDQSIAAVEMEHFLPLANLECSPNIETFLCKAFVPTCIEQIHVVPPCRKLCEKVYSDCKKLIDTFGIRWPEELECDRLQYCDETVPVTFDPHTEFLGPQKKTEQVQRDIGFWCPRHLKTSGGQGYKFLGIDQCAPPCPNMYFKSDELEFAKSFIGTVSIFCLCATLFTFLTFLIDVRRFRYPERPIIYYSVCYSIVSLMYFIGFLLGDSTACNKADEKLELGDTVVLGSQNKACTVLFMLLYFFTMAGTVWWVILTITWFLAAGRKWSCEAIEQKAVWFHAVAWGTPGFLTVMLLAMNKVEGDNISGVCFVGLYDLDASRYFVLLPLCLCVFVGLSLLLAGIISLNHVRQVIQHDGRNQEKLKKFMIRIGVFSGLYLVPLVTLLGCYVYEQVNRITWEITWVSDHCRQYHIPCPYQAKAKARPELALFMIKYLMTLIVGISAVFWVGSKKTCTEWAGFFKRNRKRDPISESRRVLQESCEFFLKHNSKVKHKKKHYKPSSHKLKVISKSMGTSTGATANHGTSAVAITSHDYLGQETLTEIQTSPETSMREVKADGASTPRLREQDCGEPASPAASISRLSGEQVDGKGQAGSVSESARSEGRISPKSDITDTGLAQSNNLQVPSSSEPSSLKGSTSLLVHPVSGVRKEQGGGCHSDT

Amino acid sequences for entries named in this document (tags omitted). Residues count along the entry.
UniProt P27467, residues 19-352: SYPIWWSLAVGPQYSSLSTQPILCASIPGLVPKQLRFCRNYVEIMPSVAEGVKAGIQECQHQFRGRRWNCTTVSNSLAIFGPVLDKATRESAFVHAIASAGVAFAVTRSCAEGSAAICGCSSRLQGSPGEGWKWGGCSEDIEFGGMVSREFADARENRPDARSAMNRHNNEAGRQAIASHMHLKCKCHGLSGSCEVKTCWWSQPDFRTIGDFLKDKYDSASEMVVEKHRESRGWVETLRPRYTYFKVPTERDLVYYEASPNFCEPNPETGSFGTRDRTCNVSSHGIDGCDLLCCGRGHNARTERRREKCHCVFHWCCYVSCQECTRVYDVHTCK

[2] = molecular target: mouse WNT3A, N-terminally PA-tagged (mouse) (UniProt P27467); experiment: co-purification (anti-PA tag NZ-1 antibody column); PA-tagged WNT3A and Target-tagged afamin co-expressed in a stable Expi293F line that secretes the complex; complex purified by the PA tag of WNT3A; dialysed against PBS pH 7.0

binding [1]: binds
B1: FZD6-Rluc8 / FZD6-eYFP (BRET constructs) (receptor, UniProt O60353 19-706)
chain: T1 sequence

binding [2]: binds
B2: human afamin, N-terminally Target-tagged (protein, UniProt P43652 22-599)
chain: LPTQPRDIENFNSTQKFIEDNIEYITIIAFAQYVQEATFEEMEKLVKDMVEYKDRCMADKTLPECSKLPNNVLQEKICAMEGLPQKHNFSHCCSKVDAQRRLCFFYNKKSDVGFLPPFPTLDPEEKCQAYESNRESLLNHFLYEVARRNPFVFAPTLLTVAVHFEEVAKSCCEEQNKVNCLQTRAIPVTQYLKAFSSYQKHVCGALLKFGTKVVHFIYIAILSQKFPKIEFKELISLVEDVSSNYDGCCEGDVVQCIRDTSKVMNHICSKQDSISSKIKECCEKKIPERGQCIINSNKDDRPKDLSLREGKFTDSENVCQERDADPDTFFAKFTFEYSRRHPDLSIPELLRIVQIYKDLLRNCCNTENPPGCYRYAEDKFNETTEKSLKMVQQECKHFQNLGKDGLKYHYLIRLTKIAPQLSTEELVSLGEKMVTAFTTCCTLSEEFACVDNLADLVFGELCGVNENRTINPAVDHCCKTNFAFRRPCFESLKADKTYVPPPFSQDLFTFHADMCQSQNEELQRKTDRFLVNLVKLKHELTDEELQSLFTNFANVVDKCCKAESPEVCFNEESPKIGN

— article PMC9072438
